Earlier results as cited in US7132446B1, “Isolation of a dimer di-gallate, a potent endothelium-dependent vasorelaxing compound” (University of South Florida, priority 2001, dated 2006).
At least one structure is not confirmed: it was looked up by name or label, or the drawing left a doubt.

Test system: blood vessels in vitro
Details: background statements; cited from earlier work

Oc1cc(O)c2cc(O)c(-c3cc(O)c(O)c(O)c3)[o+]c2c1 [delphinidin]
EDR activity (previous studies): some activity at lower concentrations
